Measurements as given in PubChem BioAssay AID493014 (National Center for Advancing Translational Sciences (NCATS), 2011).
The other results are listed elsewhere or left out. Further columns of the screen follow, without active or inactive calls. The list favours compounds with an active or inconclusive main result. The note in brackets gives the kind of curve behind each potency; many fits are weak.

Assay: qHTS Assay to Find Inhibitors of Chronic Active B-Cell Receptor Signaling
Conditions: ABC-DLBCL IkBa-CBG/CBR reporter, luminescence ratio (green luciferase fused to IkBa over red control in TMD8 lymphoma cells), 4 h
Summary of the method: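 Cell line TMD8 (human ABC DLBCL), stably expressing tet-inducible CBG68-IkBa fusion and CBR; IMDM/0.5% FBS; cpd up to 46 uM; dox induction, 4 h, 37C/5% CO2; dual luminescence; green/red ratio; MG132 control.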

[1] = measured here: CBR red luminescence, cell number
[2] = measured here: IkBa-CBG green luminescence

## Cc1cc(NC(=O)CN2C(=O)NC3(CCCCCC3)C2=O)ccc1Br
[1]
  AC50: 20.6 µM [falling, single point]

## Nc1ncnc2nc(SCc3ccc(Cl)cc3Cl)[nH]c12
[1]
  AC50: 16.4 µM [rising, single point]

## CCOC(=O)C1CCN(c2cc(=O)n(C3CCCCC3)c(=O)[nH]2)CC1
[1]
  AC50: 2.24 µM [rising, partial curve, poor fit]

## COC(=O)c1[nH]c2cc(C)ccc2c1NC(=O)CN1CCCc2ccccc21
[1]
  AC50: 3.55 µM [rising, single point]

## COc1ccccc1NC(=O)Nc1nnc(Cc2ccccc2F)s1
[1]
  AC50: 35.5 µM [rising, single point]

## CC(C)(C)OC(=O)n1cc(/C=N/NC(=O)c2ccco2)c2ccccc21
[1]
  AC50: 35.5 µM [falling, single point]

## COc1ccccc1/C=N/NC(=O)CSc1ccc2ccccc2n1
[1]
  AC50: 35.5 µM [falling, partial curve, poor fit]

## Cc1cccc(NC(=O)C2SC(=Nc3c(C)cccc3C)C(C(=O)N3CCOCC3)=C2N)c1 (configuration not stated)
[1]
  AC50: 10.3 µM [falling, partial curve]

## N#C/C(=C1\CCCN1)c1nc(-c2ccccc2)cs1
[1]
  AC50: 0.731 µM [rising, partial curve, poor fit]

## Cc1ccc(C)c(S(=O)(=O)N2CCN(C(=O)c3n[nH]c(=O)c4ccccc34)CC2)c1
[1]
  AC50: 1.3 µM [falling, partial curve, poor fit]

## CCn1c(SCC(=O)c2ccc(C)cc2)nnc1-c1ccncc1
[1]
  AC50: 7.31 µM [falling, partial curve, poor fit]

## Cc1ccc(S(=O)(=O)Cn2cnnn2)cc1
[1]
  AC50: 0.501 µM [rising, full curve, poor fit]

## CCCCNC(=S)NNC(=O)C1=NN(c2cc(C)ccc2C)C(=O)CC1
[1]
  AC50: 35.5 µM [falling, single point]

## Cc1ccc2nc(Nc3nc(=O)c4ccccc4n3C)nc(C)c2c1
[1]
  AC50: 0.282 µM [falling, full curve]

## FC(F)Oc1ccc(-c2csc(NNC3=NCCCCC3)n2)cc1
[1]
  AC50: 0.2 µM [rising, full curve, poor fit]

## O=C(COC(=O)C12CC3CC(CC(Cl)(C3)C1)C2)Nc1ccccc1
[1]
  AC50: 0.116 µM [rising, full curve, poor fit]

## Cc1cnc(C(=O)OCC(=O)Nc2ccc(Cl)cn2)cn1
[1]
  AC50: 3.66 µM [falling, full curve]

## Nc1nc(SCC(=O)Nc2ccc(OC(F)(F)F)cc2)[nH]c(=O)c1NC(=O)c1ccc(Br)o1
[1]
  AC50: 25.1 µM [falling, partial curve, poor fit]

## CCOC(=O)C1=C(N)n2c(s/c(=C\c3cccs3)c2=O)=C(C(=O)OCC)C1c1cccs1 (configuration not stated)
[1]
  AC50: 14.1 µM [rising, partial curve]
[2]
  AC50: 12.6 µM [falling, partial curve, poor fit]

## O=C(Cc1cccs1)Nc1cccc(-c2nc3cc4ccccc4cc3[nH]2)c1
[1]
  AC50: 0.326 µM [falling, partial curve, poor fit]
[2]
  AC50: 23.1 µM [rising, partial curve, poor fit]

## O=C(CN1CCN(c2ccc(F)cc2)CC1)c1ccc2c(c1)OCO2
[1]
  AC50: 35.5 µM [falling, single point]

## CCN(Cc1ccc2c(c1)OCCO2)C(=O)CSc1nc(C)nc2sc(C)c(C)c12
[1]
  AC50: 6.51 µM [rising, single point]

## COc1ccc(CCN=C(NS(=O)(=O)c2ccc(Cl)cc2)c2ccccc2)cc1
[1]
  AC50: 5.62 µM [rising, single point]

## Cc1c(CCOC(=O)c2cccc([N+](=O)[O-])c2)sc[n+]1CC(=O)c1ccccc1
[1]
  AC50: 5.62 µM [rising, single point]

## CC1(C)CC(NC(=S)Nc2ccc([N+](=O)[O-])cc2)CC(C)(C)N1
[1]
  AC50: 7.94 µM [falling, partial curve, poor fit]

## C(=C\c1ccccc1)/C=N/Nc1nc2ccccc2s1
[1]
  AC50: 17.8 µM [falling, partial curve, poor fit]

## O=C1C=C(/C=C/C2C=CC=CC2)C[C@@H](c2ccc(Cl)cc2)C1 (some centres not stated)
[1]
  AC50: 9.2 µM [rising, partial curve, poor fit]

## CC(=O)NC(c1ccc(Cl)cc1Cl)c1ccc2cccnc2c1O (configuration not stated)
[1]
  AC50: 22.4 µM [falling, single point]

## O=C(NNC(=S)Nc1ccc(F)cc1)[C@H]1C[C@@H]1c1ccccc1
[1]
  AC50: 0.631 µM [rising, partial curve, poor fit]

## Cc1ccc(C)c(C(=O)CN2C(=O)C(=O)N(C3CCCC3)C2=O)c1
[1]
  AC50: 9.2 µM [rising, partial curve]

## O=C(CNC(=O)c1sc2ccccc2c1Cl)NC1CC1
[1]
  AC50: 4.47 µM [falling, full curve]

## C[n+]1nc(Nc2ccccc2)sc1-c1ccc(C(=O)O)cc1
[1]
  AC50: 14.1 µM [falling, partial curve]

## O=C(Nc1ccc(Cl)cc1)Nc1ccc(C(=O)N2CCOCC2)cc1
[1]
  AC50: 7.08 µM [falling, full curve, poor fit]

## S=C(NCCc1ccccc1)Nc1ccc(Br)cc1
[1]
  AC50: 4.11 µM [rising, full curve]

## N#Cc1c(-c2ccccc2)nc2n(-c3ccccc3)nc(C(=O)Nc3ccccc3)n2c1=O
[1]
  AC50: 10.3 µM [rising, single point]

## NC(=O)c1cc([N+](=O)[O-])ccc1NCC1CCCCC1
[1]
  AC50: 2.06 µM [rising, full curve, poor fit]

## COc1ccccc1N1CCN(C(=O)c2ccc(S(=O)(=O)N3CCCC3)cc2)CC1
[1]
  AC50: 7.31 µM [falling, partial curve, poor fit]

## C[C@H](CO)N1C[C@H](C)[C@@H](CN(C)C(=O)Nc2ccccc2)Oc2c(NS(=O)(=O)c3cccs3)cccc2C1=O
[1]
  AC50: 25.9 µM [rising, single point]

## Cc1ccc(/C(N)=N/OC(=O)N2CCOCC2)cc1
[1]
  AC50: 3.98 µM [rising, full curve]

## CCOC(=O)C1CCN(C(=O)c2cc3cc(C)ccc3[nH]2)CC1
[1]
  AC50: 2.51 µM [falling, full curve]
